Measured values published in US20100148126A1 (priority 2008, published 2010).
Where a name gives a salt, the structure may show the parent alone. At least one structure is not confirmed: it was looked up by name or label, or the drawing left a doubt.

Protein sequences, listed by entry. Tags and fused reporters are not part of them. Residues count along the entry.
UniProt P09616, 27-319 limits assumed: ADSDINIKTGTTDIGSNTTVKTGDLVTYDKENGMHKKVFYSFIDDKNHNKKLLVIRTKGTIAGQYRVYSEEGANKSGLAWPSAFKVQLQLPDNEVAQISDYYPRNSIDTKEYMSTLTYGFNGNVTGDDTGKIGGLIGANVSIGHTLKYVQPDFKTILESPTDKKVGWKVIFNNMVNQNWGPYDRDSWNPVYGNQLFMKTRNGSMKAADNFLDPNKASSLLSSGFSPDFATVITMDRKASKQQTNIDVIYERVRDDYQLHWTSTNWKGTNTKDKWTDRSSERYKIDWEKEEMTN

Biological target: wild-type αHL protein pore (Staphylococcus aureus, UniProt P09616)
Type: binding

NN [HZ, hydrazine dihydrochloride]
mean amplitude of analyte-boromycin complex events: 22.6±0.7 pA
τoff (mean dwell time) of analyte-boromycin complex: 1.71 ± 0.06 ms
